Data reported in patent publication US20200317791A1.
No constants are given. Whether binding was seen depends on the method and setting. Some entries that bind do so weakly or less than the wild type.

Amino acid sequences for entries named in this document (tags omitted). A change or cut given only in a name is not applied to a line headed by its entry.
UniProt P10321: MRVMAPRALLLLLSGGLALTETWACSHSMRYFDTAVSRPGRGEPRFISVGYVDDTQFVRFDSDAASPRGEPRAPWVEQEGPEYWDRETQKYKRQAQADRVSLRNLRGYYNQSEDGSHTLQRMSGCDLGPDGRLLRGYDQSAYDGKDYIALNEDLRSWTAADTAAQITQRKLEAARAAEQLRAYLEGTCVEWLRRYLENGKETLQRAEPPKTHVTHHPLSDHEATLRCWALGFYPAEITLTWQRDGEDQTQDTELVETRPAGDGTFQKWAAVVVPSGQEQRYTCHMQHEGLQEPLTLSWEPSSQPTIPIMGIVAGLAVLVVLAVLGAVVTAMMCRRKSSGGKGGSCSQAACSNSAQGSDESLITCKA

Columns and labels:
[1] = target: rhHLA-Cw6 stably expressed on K562 cells (K562-rhHLA-Cw6) (human) (UniProt P10321); experiment: MSD cell binding
[2] = target: CW6W47.001; experiment: SPR Biacore 8K, captured mAb

B1: CW6B228 (antibody, V domains shown)
VH: QVQLQESGPGLVKPSETLSLTCTVSGNSIRSYYWSWIRQPAGKGLEWIGRIYISGNTNYNPSLKSRVTMSIDTSKNQFSLKLSSVTAADTAVYYCARLSGIDAFDIWGQGTMVTVSS
VL: DIQMTQSPSSLSASVGDRVTITCQASQDINNYLNWYQQKPGKAPKLLIYDASSLETGVPSRFSGSGSGTDFTFTISSLQPEDFATYYCQQYDDLPITFGQGTRLEIK
- binding [1]: binds

B2: CW6B130 (antibody, V domains shown)
VH: QLQLQESGPGLVKPSETLSLTCTVSGASISSINYYWGWIRQPPGKGLEWIGSFYYSGNTYYNPSLKSRVTISVDTSKNYFSLKLNSVTAADTAVYYCAREYYDSSGYYPFEPWGQGTLVTVSS
VL: SYVLTQPPSVSVAPGQTARITCGGDNIGSESVHWYQQKPGQAPVLVVYDDTDRPSGIPERFSGSKSGTTATLTISWVEAGDEADYYCQVWDSSSDHVVFGGGTKLTVL
- binding [2]: no binding (tested: 3.7-100 nM antigen)

B3: CW6B175 (antibody, V domains shown)
VH: EVQLVESGGGLVQPGGSLRLSCAASGFTFTNYWMTWVRQAPGKGLEWVANIKQSGSEKYYVDSVKGRFTISRDNAKNSLYLQMNSLRAEDTAVYYCARTLYEWELEPFDYWGQGTLVTVSS
VL: SYVLTQPPSVSVAPGQTARITCGGNRIGSKSVHWYQQKPGQAPVLVVFDDSDRPSGIPERFSGSNSGITATLTISRVEAGDEADYYCQVWDSSNDHVVFGGGTKLTVL
- binding [2]: no binding (tested: 3.7-100 nM antigen)
